Earlier results in US10406239B2, “Water-soluble docetaxel anticancer drug compound and preparation method and use thereof” (NANJING YOUYI MEDICAL TECHNOLOGY CO., LTD, priority 2015, dated 2019).

Conditions: background statement; cited from earlier work

Q: For `CC(=O)O[C@@]12CO[C@@H]1C[C@H](O)[C@@]1(C)C(=O)[C@H](O)C3=C(C)[C@@H](OC(=O)[C@H](O)[C@@H](NC(=O)OC(C)(C)C)c4ccccc4)C[C@@](O)([C@@H](OC(=O)c4ccccc4)[C@H]21)C3(C)C` [Docetaxel], which “solubility in water (in words)” value is on record?
A: insoluble in water
